These are yes or no findings as the source states them, for the method shown. Binding calls can cover weak binding; strength is not graded here.

The record followed here is PMC7774954, “Interactomic affinity profiling by holdup assay: Acetylation and distal residues impact the PDZome-binding specificity of PTEN phosphatase” (PLoS ONE, 2020).

Assay [1] has as its target T1, fRSK1.
T1 sequence (peptide, fluorescein coupled directly to the N-terminus): KLPSTTL
Description: fluorescence polarisation; direct: fluorescein-labelled tracer peptide with increasing amounts of PDZ domain; triplicate; apparent; both purified.

The target in assay [2] is T1, fRSK1. Briefly: fluorescence polarisation; competitive: 50 nM fluorescent tracer peptide pre-formed with the PDZ domain (>60-80% complex), unlabeled peptide added at 8 concentrations; 20 mM HEPES pH 7.5, 150 mM NaCl, 0.5 mM TCEP, 0.01% Tween 20; triplicate; apparent; both purified.

Regarding HTRA1-1 (human) (domain or fragment), the binding entry with fRSK1 [1] and with fRSK1 [2] was “binds” each time.

Regarding MAST2-1 (human) (domain or fragment), the binding result with fRSK1 [1] and in the assay with fRSK1 [2] was “binds” throughout.
